Where “and” joins values, the source holds several entries; their conditions need not be identical. Equal values may be shown once. Among all 320,000 compounds or so, about 2,100 (0.66%) were called active. The shares of active, inactive and inconclusive entries below differ from those in the screen. The call rests on the fitted dose curve; in most records, active means well fitted inhibition curve with a large enough effect in the signal ratio, with a control signal flat (not every such curve was filed as active); inconclusive means small, poorly fitted or top-dose-only effect, or effect the other way, or a change in a side signal; inactive means flat fitted curve, though single readings scatter; the % refers to the signal ratio. A potency beside an inconclusive call is a rough fit, not a confirmed value.
test: qHTS Assay for Lipid Storage Modulators in Drosophila S3 Cells; conditions: BODIPY lipid droplet fluorescence, 18-24 h, cells fed with added oleic acid; lipid storage change, negative = inhibition: at 46.1 µM (top of the series) unless noted
Outline: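 Drosophila S3 cells loaded with oleic acid (400 uM, as added) and compounds at several concentrations; lipid droplets imaged by 488-nm laser-scanning cytometry, 500–530 nm intensity and object ratio to cell channel. Percent activity normalized to 20 uM Triacsin C.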
On the % scale 0 is the no-effect control and ±100 the full control effect; potency means the concentration at half of the fitted maximal effect.

SMILES	Potency	lipid storage change, negative = inhibition	outcome
O=C(CCN1CCCCC1)Nc1cccc(Cl)c1	active: 25.9 µM	–	–
COc1ccccc1CNC(=O)CCN1C(=O)c2ccccc2C1=O	–	inconclusive: 44.6%	–
O=C(Nc1cccc2ccccc12)/C(=C\c1cccc([N+](=O)[O-])c1)NC(=O)c1cccs1	inconclusive: 32.6 µM [falling, single point]	–	–
O=C1CC(NCC2CCCO2)C(=O)N1c1ccc(F)cc1 (configuration not stated)	–	inconclusive: -21.6% [at 9.22 µM]	–
Cc1ccc(C)c(OCCCCN2CCNCC2)c1C	–	inconclusive: -1.7%	–
COC(=O)NNC(=O)c1ccc(C)c(Br)c1	–	inconclusive: 16.4%	–
CN1C(=O)N(C)C2(c3ccccc3)N(C(C)(C)C)C(=O)NC12c1ccccc1 (configuration not stated)	–	inconclusive: 0.506%	–
Nc1nnc(SCC(=O)NC2CCCC2)s1	inconclusive: 16.4 µM [activator, single point]	–	–
CC(=O)NC(Cc1ccc(C(C)C)cc1)C(=O)NC1CCN(c2nc(C)cc(C)n2)CC1 (configuration not stated)	–	inconclusive: -13.2%	–
C/C=C/C(=O)OCC(=O)Nc1nc2ccc(C)cc2s1	–	inconclusive: -0.2%	–
CN(C)S(=O)(=O)c1cccc(NC(=O)COC(=O)c2c[nH]c(=O)[nH]c2=O)c1	–	inconclusive: -65.2%	–
Cc1cccn2c(=O)nc(SCC(=O)NCc3ccc4c(c3)OCO4)nc12	–	inconclusive: 17%	–
CC(=O)Nc1ccc(NC(=O)c2ccccc2S(=O)(=O)c2ccccc2[N+](=O)[O-])cc1	–	inconclusive: -14.8%	–
CC1c2cc3c(cc2CCN1CC(=O)Nc1ccc(S(=O)(=O)N2CCCC2)cc1)OCCCO3 (configuration not stated)	inconclusive: 0.164 µM [falling, partial curve, poor fit]	–	–
COc1ccccc1C1C2=C(CCCC2=O)N(CC(=O)O)C2=C1C(=O)CCC2	–	inconclusive: 25.1%	–
Cc1ccc(NC(=O)CNC(=O)Cc2cccc3ccccc23)nc1	inconclusive: 11.6 µM [activator, partial curve, poor fit]	–	–
COc1ccc(S(=O)(=O)N2CCOCC2)cc1C(=O)NC1CCCCCC1	inconclusive: 2.06 µM [falling, partial curve, poor fit]	–	–
Cn1c(COc2ccc([N+](=O)[O-])cc2)nnc1SCC(=O)NCC1CCCO1 (configuration not stated)	inconclusive: 29.1 µM [activator, single point]	–	–
CC(C)c1ccc(N(CC(=O)NC2CCCC2)C(=O)CCC(=O)Nc2nccs2)cc1	–	inconclusive: 39.9%	–
C/C(CC(=O)Nc1ccc(Cl)cc1C(F)(F)F)=N\NC(=O)c1cccs1	inconclusive: 11.6 µM [activator, single point]	–	–
CCn1cc(C(=O)NCCCOC(C)C)c(=O)c2cc(S(=O)(=O)N3CCOCC3)ccc21	inconclusive: 29.1 µM [falling, single point]	–	–
COc1ccccc1-n1cnnc1SCC(=O)N1CCN(C(=O)c2ccco2)CC1	–	inactive: 1.02%	–
CCN(CC)C1CCN(C(=O)c2ccc(OC3CCN(Cc4ccccn4)CC3)cc2)C1 (configuration not stated)	inconclusive: 0.731 µM [falling, single point]	–	–
Cc1cc(=O)oc2cc(OCC(=O)N3CC[C@@]4(O)CCCC[C@H]4C3)c(Cl)cc12	–	inconclusive: -51.4%	–

Of the compounds above, these have fluorine:
SMILES	Potency	lipid storage change, negative = inhibition	outcome
O=C1CC(NCC2CCCO2)C(=O)N1c1ccc(F)cc1 (configuration not stated)	–	inconclusive: -21.6% [at 9.22 µM]	–
C/C(CC(=O)Nc1ccc(Cl)cc1C(F)(F)F)=N\NC(=O)c1cccs1	inconclusive: 11.6 µM [activator, single point]	–	–

Next part

SMILES	Potency	lipid storage change, negative = inhibition	outcome
O=C(COc1cc(Cl)c(Cl)cc1Cl)NC(=O)Nc1ccc2c(c1)OCCO2	–	inconclusive: -22%	–
Cc1ccc(C2=NNC(C(O)C(O)C(O)C(C)O)S2)cc1 (configuration not stated)	–	–	inactive [at 46.1 µM]
CCc1ccccc1S(=O)(=O)Cc1ccc(C(=O)NCc2ccc3c(c2)OCO3)o1	inconclusive: 0.0731 µM [rising, full curve, poor fit]	–	–
O=C(CN1CCN(c2ncccn2)CC1)N1CCCC1	–	inconclusive: 24.2%	–
O=C(CCNc1cccc(Cl)c1)c1ccco1	–	inconclusive: 13%	–
Cc1c(NC(=O)C(C)OC(=O)/C=C/c2ccc(OC(F)F)cc2)c(=O)n(-c2ccccc2)n1C (configuration not stated)	–	inconclusive	–
O=C(NC1CCCN(Cc2ccc(Cl)cc2)C1)c1ccccc1C(F)(F)F (configuration not stated)	inconclusive: 0.58 µM [activator, partial curve, poor fit]	–	–
CC(C)OC(=O)C1C2C=CC3(CN(C(C)c4ccc(Br)cc4)C(=O)C13)O2 (configuration not stated)	inconclusive: 1.16 µM [activator, partial curve]	–	–
Cn1c2ccc(F)cc2c2ncn(CCN3CCOCC3)c(=O)c21	inconclusive: 2.06 µM [rising, partial curve]	–	–
O=C(Nc1nc(-c2cccnc2)cs1)c1ccc(S(=O)(=O)N2CCOCC2)cc1	–	inconclusive: 4.88%	–
N/N=C/C(=N\Nc1ccc(Cl)cc1)C(=O)c1ccncc1	inconclusive: 0.411 µM [activator, full curve, poor fit]	–	–
NNC(=O)CNc1cccc(Br)c1	–	inconclusive: 25.2%	–
COc1ccc2nc(C)cc(C(=O)O)c2c1	–	inconclusive: -30.1%	–
CCOC(=O)N1CCC(N2Cc3cccc(C(=O)Nc4ccc(OC)c(OC)c4)c3C2=O)CC1	–	inconclusive: 14.3% [at 9.22 µM]	–
C=CCN(C(=O)CSc1nc2[nH]ncc2c(=O)n1-c1ccccc1OC)c1ccccc1	–	inconclusive: 2.14%	–
O=C(NCCSc1c[nH]c2ccccc12)c1ccc(Br)o1	–	inconclusive: -22.7%	–
COC(=O)C1=C(C)N(Cc2ccccc2)C(=NCc2cc(OC)c(OC)c(OC)c2)N[C@H]1c1ccccc1	–	inconclusive: 14.3% and inconclusive: -58.9%	–
CC1CCN(C2=NC(=O)/C(=C/c3ccc(O)cc3)S2)CC1	inconclusive: 29.1 µM [falling, single point]	–	–
O=C(Nc1ccc(S(=O)(=O)N2CCc3ccccc32)cc1)C(F)(F)F	–	–	inactive [at 46.1 µM]
COc1ccc2ccccc2c1C1CC(=O)N2CN(Cc3ccco3)CSC2=C1C#N (configuration not stated)	–	inconclusive: 58.2%	–
COc1ccc(CCNC(=O)C2CCN(S(=O)(=O)c3c(C)noc3C)CC2)cc1OC	–	inconclusive: 10.8%	–
C=CCc1cc(C=O)cc(OC)c1OCc1c(Cl)cccc1Cl	inconclusive: 20.6 µM [falling, single point]	–	–
COC(C[C@H](O)[C@H](C)[C@@H](O)COCc1ccccc1)OC	–	inconclusive: 6.84%	–

Reference: PubChem BioAssay AID2685 (National Center for Advancing Translational Sciences (NCATS), 2010)
